No constants are given. Whether binding was seen depends on the method and setting. In cells and extracts the contact can be indirect. Some entries that bind do so weakly or less than the wild type.

Assay [1] deals with T1, endogenous REST (human (endogenous in SH-SY5Y)) (UniProt Q13127).
T1 sequence: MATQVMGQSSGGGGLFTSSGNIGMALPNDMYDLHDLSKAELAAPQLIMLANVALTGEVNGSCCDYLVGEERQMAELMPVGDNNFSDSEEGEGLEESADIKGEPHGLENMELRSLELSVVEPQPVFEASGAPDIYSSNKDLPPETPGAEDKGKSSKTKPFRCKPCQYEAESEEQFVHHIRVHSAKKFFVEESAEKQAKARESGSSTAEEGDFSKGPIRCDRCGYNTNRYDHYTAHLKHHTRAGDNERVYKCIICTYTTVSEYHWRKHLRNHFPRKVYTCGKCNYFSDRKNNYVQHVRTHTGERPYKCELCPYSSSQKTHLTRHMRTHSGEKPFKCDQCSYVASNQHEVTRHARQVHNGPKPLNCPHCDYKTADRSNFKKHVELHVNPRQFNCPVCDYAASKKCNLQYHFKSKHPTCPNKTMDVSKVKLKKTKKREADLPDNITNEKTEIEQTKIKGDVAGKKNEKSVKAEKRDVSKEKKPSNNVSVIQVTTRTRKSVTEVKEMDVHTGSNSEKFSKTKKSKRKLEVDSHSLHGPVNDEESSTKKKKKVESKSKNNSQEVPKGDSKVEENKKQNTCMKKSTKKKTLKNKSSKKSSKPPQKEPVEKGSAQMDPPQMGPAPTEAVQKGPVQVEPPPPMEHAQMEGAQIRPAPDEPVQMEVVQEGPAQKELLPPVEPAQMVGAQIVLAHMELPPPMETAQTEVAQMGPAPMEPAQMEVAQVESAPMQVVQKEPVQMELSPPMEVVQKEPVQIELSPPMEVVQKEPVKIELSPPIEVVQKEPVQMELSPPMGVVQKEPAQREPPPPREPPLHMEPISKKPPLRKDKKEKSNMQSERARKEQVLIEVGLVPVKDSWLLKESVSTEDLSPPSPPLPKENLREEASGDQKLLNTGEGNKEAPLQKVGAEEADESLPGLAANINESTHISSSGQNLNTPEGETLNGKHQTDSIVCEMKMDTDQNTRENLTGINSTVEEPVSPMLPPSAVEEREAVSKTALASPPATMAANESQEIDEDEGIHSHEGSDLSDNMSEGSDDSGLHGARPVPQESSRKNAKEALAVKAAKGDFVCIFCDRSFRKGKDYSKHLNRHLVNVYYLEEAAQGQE
As to the kind of experiment: proximity ligation; Duolink in situ PLA in fixed SH-SY5Y cells with primary antibodies against USP3 and REST; single antibodies as controls.

The target in assay [2] is T1, endogenous REST (human (endogenous in SH-SY5Y)). Briefly: co-IP; endogenous proteins in SH-SY5Y lysate; immunoprecipitated with antibodies against USP3 or REST, western blot; IP lysis buffer 25 mM Tris-HCl pH 7.4, 150 mM NaCl, 1 mM EDTA, 1% NP-40, 5% glycerol; 4 °C overnight. A general note: A western blot detects proteins with antibodies after separation by electrophoresis.

B1: endogenous USP3 (enzyme, UniProt Q9Y6I4 1-520)
chain: MECPHLSSSVCIAPDSAKFPNGSPSSWCCSVCRSNKSPWVCLTCSSVHCGRYVNGHAKKHYEDAQVPLTNHKKSEKQDKVQHTVCMDCSSYSTYCYRCDDFVVNDTKLGLVQKVREHLQNLENSAFTADRHKKRKLLENSTLNSKLLKVNGSTTAICATGLRNLGNTCFMNAILQSLSNIEQFCCYFKELPAVELRNGKTAGRRTYHTRSQGDNNVSLVEEFRKTLCALWQGSQTAFSPESLFYVVWKIMPNFRGYQQQDAHEFMRYLLDHLHLELQGGFNGVSRSAILQENSTLSASNKCCINGASTVVTAIFGGILQNEVNCLICGTESRKFDPFLDLSLDIPSQFRSKRSKNQENGPVCSLRDCLRSFTDLEELDETELYMCHKCKKKQKSTKKFWIQKLPKVLCLHLKRFHWTAYLRNKVDTYVEFPLRGLDMKCYLLEPENSGPESCLYDLAAVVVHHGSGVGSGHYTAYATHEGRWFHFNDSTVTLTDEETVVKAKAYILFYVEHQAKAGSDKL
For the molecule B1, the binding entry in assay [1] and in assay [2] was “binds” throughout.

Values taken from publication PMC10176696.
